These are yes or no findings as the source states them, for the method shown. Some binding calls cover weakened binding; strength is not graded here. For some assays here: Sequences can lack the tags named with a protein.
T1: ExoU with an N-terminal histidine tag (P. aeruginosa), O34208
T1 chain: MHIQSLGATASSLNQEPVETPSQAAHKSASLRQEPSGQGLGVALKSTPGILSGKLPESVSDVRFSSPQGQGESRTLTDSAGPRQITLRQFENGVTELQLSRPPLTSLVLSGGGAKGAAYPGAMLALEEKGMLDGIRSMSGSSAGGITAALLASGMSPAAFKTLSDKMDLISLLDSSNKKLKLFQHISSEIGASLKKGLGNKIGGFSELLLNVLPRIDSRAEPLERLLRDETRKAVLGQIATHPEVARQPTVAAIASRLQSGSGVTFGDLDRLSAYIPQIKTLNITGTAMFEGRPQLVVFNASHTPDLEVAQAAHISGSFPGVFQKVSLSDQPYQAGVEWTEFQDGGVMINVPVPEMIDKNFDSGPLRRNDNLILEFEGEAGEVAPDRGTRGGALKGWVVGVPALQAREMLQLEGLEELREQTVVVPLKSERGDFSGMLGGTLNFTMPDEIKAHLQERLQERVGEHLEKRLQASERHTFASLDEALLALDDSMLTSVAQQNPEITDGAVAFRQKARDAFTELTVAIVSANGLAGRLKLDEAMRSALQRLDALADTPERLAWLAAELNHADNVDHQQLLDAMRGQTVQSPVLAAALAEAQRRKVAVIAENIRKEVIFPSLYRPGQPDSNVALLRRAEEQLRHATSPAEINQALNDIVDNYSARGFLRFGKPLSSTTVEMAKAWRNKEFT


Columns and labels:
[1] = target: ExoU with an N-terminal histidine tag (P. aeruginosa) (UniProt O34208); test: native gel or EMSA
[2] = target: T1, ExoU with an N-terminal histidine tag …; test: native gel or EMSA; details: remark: other sources report otherwise

| Molecule | binding [1] | binding [2] |
| --- | --- | --- |
| ExoU with an N-terminal histidine tag (from UniProt O34208 1-687) (enzyme) | no binding (condition: with compound D) |  |
| ExoU with an N-terminal histidine tag, O34208 1-687 (enzyme) MHIQSLGATASSLNQEPVETPSQAAHKSASLRQEPSGQGLGVALKSTPGILSGKLPESVSDVRFSSPQGQGESRTLTDSAGPRQITLRQFENGVTELQLSRPPLTSLVLSGGGAKGAAYPGAMLALEEKGMLDGIRSMSGSSAGGITAALLASGMSPAAFKTLSDKMDLISLLDSSNKKLKLFQHISSEIGASLKKGLGNKIGGFSELLLNVLPRIDSRAEPLERLLRDETRKAVLGQIATHPEVARQPTVAAIASRLQSGSGVTFGDLDRLSAYIPQIKTLNITGTAMFEGRPQLVVFNASHTPDLEVAQAAHISGSFPGVFQKVSLSDQPYQAGVEWTEFQDGGVMINVPVPEMIDKNFDSGPLRRNDNLILEFEGEAGEVAPDRGTRGGALKGWVVGVPALQAREMLQLEGLEELREQTVVVPLKSERGDFSGMLGGTLNFTMPDEIKAHLQERLQERVGEHLEKRLQASERHTFASLDEALLALDDSMLTSVAQQNPEITDGAVAFRQKARDAFTELTVAIVSANGLAGRLKLDEAMRSALQRLDALADTPERLAWLAAELNHADNVDHQQLLDAMRGQTVQSPVLAAALAEAQRRKVAVIAENIRKEVIFPSLYRPGQPDSNVALLRRAEEQLRHATSPAEINQALNDIVDNYSARGFLRFGKPLSSTTVEMAKAWRNKEFT |  | binds |
